Article PMC7486383, “Protrudin and PDZD8 contribute to neuronal integrity by promoting lipid extraction required for endosome maturation” (Nature Communications, 2020)
No constants are given. Whether binding was seen depends on the method and setting. In cells and extracts the contact can be indirect. Some results given as binding are weak or reduced against the parent protein; the word gives no strength.

Target: T1, endogenous protrudin of mouse brain (mouse (endogenous in mouse brain)) (UniProt Q3TXX3)
T1 sequence: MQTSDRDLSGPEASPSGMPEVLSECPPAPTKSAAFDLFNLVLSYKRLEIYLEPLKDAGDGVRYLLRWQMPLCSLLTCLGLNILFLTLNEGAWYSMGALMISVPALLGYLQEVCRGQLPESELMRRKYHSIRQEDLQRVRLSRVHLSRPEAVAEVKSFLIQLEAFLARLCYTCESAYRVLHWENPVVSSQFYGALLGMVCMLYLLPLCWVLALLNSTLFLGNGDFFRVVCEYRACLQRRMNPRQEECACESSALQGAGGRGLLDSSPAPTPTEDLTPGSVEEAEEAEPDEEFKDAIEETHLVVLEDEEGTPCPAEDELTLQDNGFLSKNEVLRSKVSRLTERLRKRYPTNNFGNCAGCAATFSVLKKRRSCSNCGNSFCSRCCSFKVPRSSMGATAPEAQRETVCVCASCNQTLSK
Assay: co-IP; membrane fraction of wild-type mouse brain; IP with antibodies to protrudin or to PDZD8 or normal rabbit serum, protein G-Sepharose, 1 h at 4 °C; immunoblot for protrudin and PDZD8

B1: endogenous PDZD8 of mouse brain (protein, UniProt B9EJ80 1-1147)
chain: MGLLLLILASAVLGSFLTLLAQFLLLYRRQPEPRADEAARAGDGFRYLKPVPGLPLREYLYGGGAEELAACSSEAGASSTPTPDSPAPPTLETCYFLNATILFLFRELRDTALARRWVTKKIKVEFEELLQTKTAGRLLEGLSLRDVFLGDTVPFIKTIRLVRPVVASGTGEPDDPDGDALPATCPEELAFEAEVEYNGGFHLAIDVDLVFGKSAYLFVKLSRVVGRLRFVLTRVPFTHWFFSFVEDPLIDFEVRSQFEGRPMPQLTSIIVNQLKKIIKRKHTLPSYKIRFKPFFPYQALQGFEEDEELIHIQQWALTEGRLKVTLLECSRLFIFGSYDRETNVHCTLELSSGVWEEKQRSSIKTVELIKGNLQSVGLTLRLVQSTDGYAGHVIIETVAPNSPAAMADLQRGDRLIAIGGVKITSTLQVLKLIKQAGDRVLVYYQRPAGQSSQDSLGQLEESFLSSSCQAAYEEDAAGLSADTENRDLDSEFEDLASDVRVQTELKEETQPLSHSPKRTPTTLSIKPLGAISPVLNRKLISGIHPPPQKLPSKEGNKPSTLKTSETTEAAQVSKPQGPTFKPPVPPRPQGRVPLPPTDTSAQADPEAPEKPDKVLLPPPPADKPAEKQVKSVDQGEDVAAGKQSSAKQEGVKDLPSESSAPTKDSSDDPQMWESSEVLYRNKVGKWSRTRASCVFDIEACHRYLNIALWCRDPFKLGGLICLGHVSLKLEEVALGCLATSNMEYLTKFRLEPPTPKAMVTRTALRNLSMQKGFNDKFCFGDITIHFKYLKEGEPDHHIVPNVEKEKELHLVEEVSTLPKEEHFVGQMSLSENKHSFQDTQFQNPTWCDYCKKKVWTKAASQCMFCAYVCHKKCQEKCLAETPLCGATERRIDRTLKNLRLEGQDPLLGLPPRVEIEANKSVNKTTGLTRHIINTSSRLLNLRQVSKTRLSEPGTDLVEPSPKHTPNTSDNEGSDTEVCGSNSPSKRGNSAGIKLMRKEGGLDDSVFIAVKEIGRDLYRGLPTEERIQKLEFMLDKLQNEIDQELEHNNSLVREEKETNDTRKKSVLSAALAKSGERLQALTLLMIHYRAGIEDIETLENLSLDQHSKKMNKYADDTEEDLDSEISQLIDSQPFSNISDDLFGPSESV
  binding: binds
